Results taken from patent publication US11691928B2, “Compositions, systems and methods for delivery of an element in response to biological demand” (Lucent Biosciences, Inc., priority 2018, dated 2023).
Some results were stated once for a whole list of compounds, not compound by compound.

Assay: Effect of composition on pH of surrounding tap water
Type: physicochemical
Conditions: 4 ppm iron
Excerpt: Since the pH of water is an important factor in biology for microorganism growth and survival, experiments were undertaken to determine what effect the compositions had on the pH of surrounding water.
The effects of 4 ppm iron-loaded composition (“Fe—WP”), iron chloride and iron sulfate on the pH of tap water was examined. […] However, the same amount of iron with sources of iron chloride and iron sulfate reduced the pH of tap water within a range of 1.6-2.9 units.

iron chloride [FeCl3]
reduction of the pH of tap water: 1.6-2.9 units
